Reference: the supplement of paper PMC7646827
“And” between values parts separate entries of the source, which are not always exact repeats. Equal values may be shown once. Where a name gives a salt, the structure may show the parent alone. Repeats are few or missing, and single values can be far off.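 All cells are established human bladder cancer lines, one of them grown from a patient-derived xenograft. Viability was read by a luminescent ATP assay as percent inhibition versus vehicle over a seven-point dilution series; the paper calls scores above 59 very active, 30–59 active, 21–29 semi-active, 9–20 low active and below 9 inactive.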

Assays:
Test in all cases: drug sensitivity score DSS3 (score 0-100); higher = more sensitive; extreme values may be limits of the assay
Details in all cases: culture: 3D, ultra-low attachment; treatment time: 5 days
[1] = tested on: UM-UC-18
[2] = tested on: UM-UC-5
[3] = tested on: UM-UC-9
[4] = tested on: UM-UC-14
[5] = tested on: J82
[6] = tested on: SCaBER
[7] = tested on: UM-UC-17
[8] = tested on: UM-UC-1
[9] = tested on: UM-UC-6
[10] = tested on: TCCSUP
[11] = tested on: 5637
[12] = tested on: UM-UC-15
[13] = tested on: T-24
[14] = tested on: UM-UC-12
[15] = tested on: SW780
[16] = tested on: UM-UC-3
[17] = tested on: BC8149

| SMILES | drug sensitivity score DSS3 [1] | drug sensitivity score DSS3 [2] | drug sensitivity score DSS3 [3] | drug sensitivity score DSS3 [4] | drug sensitivity score DSS3 [5] | drug sensitivity score DSS3 [6] | drug sensitivity score DSS3 [7] | drug sensitivity score DSS3 [8] | drug sensitivity score DSS3 [9] | drug sensitivity score DSS3 [10] | drug sensitivity score DSS3 [11] | drug sensitivity score DSS3 [12] | drug sensitivity score DSS3 [13] | drug sensitivity score DSS3 [14] | drug sensitivity score DSS3 [15] | drug sensitivity score DSS3 [16] | drug sensitivity score DSS3 [17] |
| --- | --- | --- | --- | --- | --- | --- | --- | --- | --- | --- | --- | --- | --- | --- | --- | --- | --- |
| CO[C@H]1C[C@@H]2CC[C@@H](C)[C@@](O)(O2)C(=O)C(=O)N2CCCC[C@H]2C(=O)O[C@H]([C@H](C)C[C@@H]2CC[C@@H](OCCO)[C@H](OC)C2)CC(=O)[C@H](C)/C=C(\C)[C@@H](O)[C@@H](OC)C(=O)[C@H](C)C[C@H](C)/C=C/C=C/C=C/1C [Everolimus (RAD001)] (max dose 10000 nM) | 0 | 0 | 0 | 0 | 0.0237 | 0 | 0 | 18.6 | 0 | 26.2 | 1.87 | 0 | 0 | 0 | 0 | 0 |  |
| CS(=O)(=O)c1cccc(CNc2nc(Nc3ccc4c(c3)CCC(=O)N4)ncc2C(F)(F)F)c1 (max dose 10000 nM) | 0.00633 | 0 | 0 | 1.43 | 0 |  | 0 | 0.305 | 0 | 4.23 | 0 | 0 | 9.78 | 1.28 | 0.0177 | 0 | 0 |
| CCCCCCCCc1ccc(CCC(N)(CO)CO)cc1 [Fingolimod (FTY720) HCl] (max dose 10000 nM) | 0 | 2.31 | 0.0226 | 0.0405 | 0 |  | 0 | 0 | 0 | 0.0495 | 0.0708 | 21.7 | 0 | 0.883 | 0 | 4.57 | 0 |
| Cc1cc(Nc2cc(N3CCN(C)CC3)nc(/C=C/c3ccccc3)n2)n[nH]1 [ENMD-2076] (max dose 10000 nM) | 1.91 | 0 | 0 | 3.18 | 1.45 |  | 3.12 | 3.54 | 0 | 15.2 | 11.1 | 0 | 1.63 | 0.545 | 0 | 1.13 | 4.8 |
| COc1ccc2c(Oc3ccc(NC(=O)c4c(C)n(CC(C)(C)O)n(-c5ccccc5)c4=O)nc3)ccnc2c1 [AMG-458] (max dose 10000 nM) | 1.4 | 0 | 0 | 0 | 0 | 0 | 0.0479 | 0 | 0 | 0.0429 | 0 | 0 | 0 | 0 | 0 | 0.358 |  |
| COc1ccc(C(=O)C2CCN(CC(=O)N(Cc3nc4c(c(=O)[nH]3)COCC4)CC3CC3)CC2)cc1 [NVP-TNKS656] (max dose 10000 nM) | 0 | 0 | 0 | 24.9 | 0 | 0 | 11.9 | 26.1 | 10.9 | 22.7 | 0.113 | 0 | 0 | 0 | 0 | 9.57 |  |
| C[C@@H](Oc1cc(-n2cnc3ccc(CN4CCN(C)CC4)cc32)sc1C(N)=O)c1ccccc1C(F)(F)F (max dose 10000 nM) | 42.1 | 3.91 | 47.9 | 40.1 | 7.64 |  | 71.1 | 37.4 | 50.2 | 73.1 | 40.5 | 10.1 | 2.73 | 36.1 | 51.8 | 38.2 | 30.6 |
| CN1CC(=O)N2[C@H](c3ccc4c(c3)OCO4)c3[nH]c4ccccc4c3C[C@@H]2C1=O [Tadalafil] (max dose 10000 nM) | 0 | 0 | 0 | 0 | 0 | 0 | 0 | 0 | 0 | 0 | 0 | 4.16 | 0 | 0 | 0 | 0 |  |
| CO[C@@H](C(=O)N1Cc2[nH]nc(NC(=O)c3ccc(N4CCN(C)CC4)cc3)c2C1)c1ccccc1 (max dose 10000 nM) | 0 | 0 | 0 | 15.7 | 0 |  | 4 | 14.9 | 15.4 | 59.8 | 50.5 | 1.42 | 0.557 | 3.96 | 0.384 | 0.44 | 7.8 |
| O=C(CCc1ccc(O)cc1)c1c(O)cc(O)cc1O [Phloretin] (max dose 10000 nM) | 0 | 0 | 0 | 0 | 0 |  | 0 | 0 | 0 | 0 | 0 | 0 | 0 | 0 | 0 | 0 | 0 |
| CC1=C(C(=O)Nc2cc3cn[nH]c3cc2F)C(c2ccc(C(F)(F)F)cc2)CC(=O)N1 (stereo not given) (max dose 10000 nM) |  | 11.5 | 12.3 |  | 22 | 0 | 3.42 | 46.5 |  | 6.29 | 10.6 | 0 | 0 |  | 0 | 22.5 |  |
| CCOC(=O)NCCCC(=O)NCCc1ccccc1 (max dose 10000 nM) | 3.47 | 0 | 0 | 0 | 0 | 5.74 | 12.9 | 0 | 0 | 4.85 | 19.3 | 16.1 | 0 | 0 | 1.82 | 0 |  |
| O=C(O)c1ccc(-c2c[nH]c3ncc(-c4ccccc4)cc23)cc1C1CCCC1 (max dose 10000 nM) | 0 | 0 | 12.1 | 4.01 |  | 0 | 0 | 4.77 | 10.5 | 6.46 | 12.5 |  | 0 | 0 |  | 0 | 0 |
| COc1cc2c(NC3CCN(C(C)C)CC3)nc(N3CCC(F)(F)CC3)nc2cc1OCCCN1CCCC1 [UNC0642] (max dose 10000 nM) | 1.89 | 0 | 0 | 0 | 0 | 0 | 8.59 | 0 | 0 | 9.04 | 18.6 | 0 | 0 | 0 | 0 | 5.97 |  |
| O=C(c1cc(Cc2n[nH]c(=O)c3ccccc23)ccc1F)N1CCN(C(=O)C2CC2)CC1 (max dose 10000 nM) | 0 | 0 | 0 | 0 | 0 | 0.0186 | 0 | 0 | 0 | 1.4 | 0 | 0 | 0 | 0 | 0 | 0 |  |
| C[C@@H]1COCCN1c1cc(-c2ccnn2C)c2ccnc(-c3ccn[nH]3)c2n1 (max dose 10000 nM) | 32.9 | 0 | 9.28 | 28.2 | 5.39 |  | 30 | 37.5 | 45.5 | 58.4 | 43 | 0 | 0 | 1.53 | 3.95 | 8.15 | 22.2 |
| CCN(CC)CC(O)CNc1ccc(NCC2CO2)c2c1C(=O)c1ccccc1C2=O (stereo not given) [BDA-366] (max dose 10000 nM) | 28.7 | 3.93 | 25.9 | 8.4 |  | 28.4 | 12 | 37.5 | 26.4 | 10.8 | 42.7 | 0 | 10.5 | 25.3 |  | 51 |  |
| CCOc1cc(C(C)(C)C)ccc1C1=N[C@@](C)(c2ccc(Cl)cc2)[C@@](C)(c2ccc(Cl)cc2)N1C(=O)N1CCN(CCCS(C)(=O)=O)CC1 [RG-7112] (max dose 10000 nM) | 0 | 0 | 0 | 0 | 0 |  | 0 | 0 | 0 | 0 | 0.335 | 0 | 0.399 | 5.6 | 0.132 | 0 | 0 |
| O=c1[nH]nc(Sc2ncc([N+](=O)[O-])s2)n1-c1ccc2c(c1)OCCO2 [BI-78D3] (max dose 10000 nM) | 1.6 | 0.105 | 0.371 | 0.396 | 0 | 1.24 | 0 | 2 | 2.28 | 1.22 | 1.12 | 1.2 | 1.92 | 2 |  | 3.05 |  |
| O=C(Nc1ccc(OC(F)(F)F)cc1)c1sccc1NCc1ccnc2ccccc12 [OSI-930] (max dose 10000 nM) | 0 | 0 | 0 | 0 | 0 | 7.07 | 0 | 4.24 | 0 | 0 | 0 | 0 | 0 | 0 | 0 | 0.697 |  |
| Cc1ccc(Nc2nccc(N(C)c3ccc4c(C)n(C)nc4c3)n2)cc1S(N)(=O)=O [Pazopanib] (max dose 10000 nM) | 0.438 | 0 |  | 0 | 0 | 0 | 0 |  | 0 |  | 1.97 | 29.4 | 12.5 | 0 | 0 | 0 |  |
| CC(=O)N1CCN(CCOc2ccc(C3CCN(C4=Nn5c(nnc5C(F)(F)F)CC4)CC3)cc2)CC1 [AZD3514] (max dose 10000 nM) | 0 | 0 | 2.24 | 1.54 | 0 |  | 0.853 | 0.694 | 0 | 0.976 | 6.41 | 0 | 0 | 0 | 0.0197 | 1.12 | 0.166 |
| O=c1[nH]cc(F)c(=O)[nH]1 [5-FU, Fluorouracil (5-Fluoracil, 5-FU)] (max dose 10000 nM) | 30.1 | 0 | 4.33 | 15.2 | 2.19 |  | 14.6 | 5.37 | 2.76 | 18 | 6.45 | 10.7 | 1.59 | 2.53 | 3.77 | 11 | 7.47 |
| C=CCc1cccc(/C=N/NC(=O)CN2CCN(Cc3ccccc3)CC2)c1O [PAC-1] (max dose 10000 nM) | 0 | 1.25 | 0.361 | 0 | 0 |  | 0 | 0 | 0 |  | 0.546 | 0 | 1.44 | 1.72 | 0.0304 | 4.15 | 2.2 |
| Cc1cnc(NC(=O)Nc2cc(Br)c(C)cc2OC[C@@H]2CNCCO2)cn1 (max dose 10000 nM) | 5.65 and 3.04 |  | 0 |  | 0 | 0 |  |  |  | 18.2 and 7.14 |  | 0 | 0 |  | 0 | 2.72 |  |
| Nc1nc(NCCc2ccc(O)cc2)nc2nc(-c3ccco3)nn12 (max dose 10000 nM) |  | 0 | 0 | 0 | 0 | 0.1 | 0 | 0 | 1.38 | 0 | 0 | 0 | 0 | 0 | 0.00146 | 0.0642 |  |

Only drug sensitivity score DSS3 [17], drug sensitivity score DSS3 [13] and drug sensitivity score DSS3 [1], for 2 of the compounds above:
SMILES | drug sensitivity score DSS3 [17] | drug sensitivity score DSS3 [13] | drug sensitivity score DSS3 [1]
O=c1[nH]nc(Sc2ncc([N+](=O)[O-])s2)n1-c1ccc2c(c1)OCCO2 [BI-78D3] (max dose 10000 nM) |  | 1.92 | 1.6
C=CCc1cccc(/C=N/NC(=O)CN2CCN(Cc3ccccc3)CC2)c1O [PAC-1] (max dose 10000 nM) | 2.2 | 1.44 | 0
